The record followed here is article PMC3088716.

Protein sequences, listed by entry. Tags and fused reporters are not part of them.
UniProt Q13547: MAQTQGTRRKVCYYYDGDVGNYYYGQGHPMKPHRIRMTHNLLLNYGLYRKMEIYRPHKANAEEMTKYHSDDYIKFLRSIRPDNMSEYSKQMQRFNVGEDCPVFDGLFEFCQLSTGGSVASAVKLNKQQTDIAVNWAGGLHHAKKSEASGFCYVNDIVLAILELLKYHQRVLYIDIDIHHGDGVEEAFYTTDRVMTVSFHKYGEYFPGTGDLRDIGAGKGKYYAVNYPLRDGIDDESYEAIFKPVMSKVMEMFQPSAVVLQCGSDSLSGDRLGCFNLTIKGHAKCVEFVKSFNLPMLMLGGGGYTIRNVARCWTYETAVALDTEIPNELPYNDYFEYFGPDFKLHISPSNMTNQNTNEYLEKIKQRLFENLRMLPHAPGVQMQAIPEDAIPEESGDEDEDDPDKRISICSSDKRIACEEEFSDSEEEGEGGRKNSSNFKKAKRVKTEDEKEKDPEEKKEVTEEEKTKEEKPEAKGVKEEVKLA
UniProt Q92769: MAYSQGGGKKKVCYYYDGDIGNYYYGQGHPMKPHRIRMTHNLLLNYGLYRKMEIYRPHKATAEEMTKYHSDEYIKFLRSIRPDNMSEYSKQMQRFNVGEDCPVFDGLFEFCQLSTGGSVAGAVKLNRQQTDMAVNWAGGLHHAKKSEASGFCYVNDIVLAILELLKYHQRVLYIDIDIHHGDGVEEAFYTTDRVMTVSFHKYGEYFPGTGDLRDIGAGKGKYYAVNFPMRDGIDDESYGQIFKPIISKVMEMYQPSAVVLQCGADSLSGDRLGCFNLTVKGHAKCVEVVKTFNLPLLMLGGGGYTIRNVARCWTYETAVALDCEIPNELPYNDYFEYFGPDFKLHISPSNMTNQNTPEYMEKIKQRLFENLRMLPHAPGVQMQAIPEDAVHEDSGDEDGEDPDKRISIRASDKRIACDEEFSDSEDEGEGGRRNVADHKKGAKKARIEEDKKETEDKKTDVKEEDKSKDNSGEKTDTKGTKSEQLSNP

No constants are given. Whether binding was seen depends on the method and setting. In cells and extracts the contact can be indirect. A yes stands for co-enrichment or nearness to the bait. Other partners may have been found. Sequences can lack the tags named with a protein.

For assay [1], the target named is T1, FLAG-tagged ZNF541 (mouse) (UniProt Q0GGX2).
T1 sequence: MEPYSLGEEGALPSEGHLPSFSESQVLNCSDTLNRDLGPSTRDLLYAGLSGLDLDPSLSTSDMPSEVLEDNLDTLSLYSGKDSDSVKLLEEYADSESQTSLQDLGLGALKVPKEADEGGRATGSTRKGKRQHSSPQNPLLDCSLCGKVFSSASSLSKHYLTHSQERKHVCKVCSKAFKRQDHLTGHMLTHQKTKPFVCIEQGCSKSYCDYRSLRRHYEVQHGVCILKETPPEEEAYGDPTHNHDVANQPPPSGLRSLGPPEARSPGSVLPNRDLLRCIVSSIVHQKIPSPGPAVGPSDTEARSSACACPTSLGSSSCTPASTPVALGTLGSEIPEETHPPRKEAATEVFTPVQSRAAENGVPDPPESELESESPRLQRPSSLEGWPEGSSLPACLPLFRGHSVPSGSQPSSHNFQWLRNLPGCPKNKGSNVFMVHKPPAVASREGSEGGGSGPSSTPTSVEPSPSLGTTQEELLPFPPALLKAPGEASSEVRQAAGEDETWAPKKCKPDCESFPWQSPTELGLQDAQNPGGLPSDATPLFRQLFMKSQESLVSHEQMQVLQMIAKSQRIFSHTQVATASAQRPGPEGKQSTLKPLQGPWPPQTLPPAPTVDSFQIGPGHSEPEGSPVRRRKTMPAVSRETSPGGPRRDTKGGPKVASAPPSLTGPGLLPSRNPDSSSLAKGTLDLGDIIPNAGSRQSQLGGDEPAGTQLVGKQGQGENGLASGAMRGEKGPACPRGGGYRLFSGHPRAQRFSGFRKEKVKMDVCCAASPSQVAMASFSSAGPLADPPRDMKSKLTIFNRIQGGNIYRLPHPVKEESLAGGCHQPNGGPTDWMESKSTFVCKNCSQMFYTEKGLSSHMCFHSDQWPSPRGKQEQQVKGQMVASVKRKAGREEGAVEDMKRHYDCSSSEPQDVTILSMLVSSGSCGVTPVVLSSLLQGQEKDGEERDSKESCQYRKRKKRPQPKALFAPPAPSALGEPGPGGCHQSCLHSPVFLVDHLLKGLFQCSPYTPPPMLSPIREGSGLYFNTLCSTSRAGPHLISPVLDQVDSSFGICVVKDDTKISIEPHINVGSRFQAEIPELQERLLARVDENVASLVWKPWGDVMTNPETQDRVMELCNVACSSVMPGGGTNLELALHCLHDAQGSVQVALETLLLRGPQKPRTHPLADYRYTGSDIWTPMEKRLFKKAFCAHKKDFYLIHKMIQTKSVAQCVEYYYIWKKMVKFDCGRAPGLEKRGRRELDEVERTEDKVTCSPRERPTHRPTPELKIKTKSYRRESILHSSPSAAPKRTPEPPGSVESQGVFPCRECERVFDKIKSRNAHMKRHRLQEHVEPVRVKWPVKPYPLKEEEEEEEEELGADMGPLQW
The assay is described as follows: affinity purification with mass spectrometry; immunoprecipitation from HEK293 cell lines stably expressing FLAG-tagged ZNF541 or Dnttip1, followed by MudPIT; 3 independent biological samples.

The target of assay [2] is T2, FLAG-tagged Dnttip1 (mouse) (UniProt Q99LB0).
T2 sequence: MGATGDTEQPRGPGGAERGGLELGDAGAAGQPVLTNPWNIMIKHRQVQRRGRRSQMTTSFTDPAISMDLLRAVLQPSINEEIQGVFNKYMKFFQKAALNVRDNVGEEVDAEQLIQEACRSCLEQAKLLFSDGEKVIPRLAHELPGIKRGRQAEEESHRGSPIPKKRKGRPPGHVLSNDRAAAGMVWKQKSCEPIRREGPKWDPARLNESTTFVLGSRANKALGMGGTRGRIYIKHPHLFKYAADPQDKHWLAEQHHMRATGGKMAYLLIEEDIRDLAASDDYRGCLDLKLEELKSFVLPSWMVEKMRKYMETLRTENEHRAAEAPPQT
Described as above.

Consider “histone deacetylase 1 (HDAC1), endogenous in HEK293 cells (from UniProt Q13547 1-482) (enzyme)”, for which the binding entry in assay [1] is reported as “binds”.

“histone deacetylase 2 (HDAC2), endogenous in HEK293 cells (from UniProt Q92769 1-488) (enzyme)”: the binding result in assay [2] and in assay [1] was “binds” each time.

B1: endogenous TRERF1 of HEK293 cells (protein, UniProt Q96PN7 1-1200)
chain: MGDQQLYKTNHVAHGSENLFYQQPPLGVHSGLNHNYGNAVTGGGMDAPQASPISPHFPQDTRDGLGLPVGSKNLGQMDTSRQGGWGSHAGPGNHVQLRGNLANSNMMWGAPAQAEPTDGYQYTYSQASEIRTQKLTSGVLHKLDSFTQVFANQNLRIQVNNMAQVLHTQSAVMDGAPDSALRQLLSQKPMEPPAPAIPSRYQQVPQQPHPGFTGGLSKPALQVGQHPTQGHLYYDYQQPLAQVPVQGGQPLQAPQMLSQHMQQMQQHQYYPPQQQQQAGQQRISMQEIQTQPQQIRPSQPQPPPQQQQPQQLQLQQRQGSMQIPQYYQPQPMMQHLQEQQQQQMHLQPPSYHRDPHQYTPEQAHTVQLIPLGSMSQYYYQEPQQPYSHPLYQQSHLSQHQQREDSQLKTYSSDRQAQAMLSSHGDLGPPDTGMGDPASSDLTRVSSTLPHRPLLSPSGIHLNNMGPQHQQLSPSAMWPQMHLPDGRAQPGSPESSGQPKGAFGEQFDAKNKLTCSICLKEFKNLPALNGHMRSHGGMRASPNLKQEEGEKVLPPQPQPPLPPPPPPPPPPQLPPEAESLTPMVMPVSVPVKLLPPKPSSQGFTNSTVAAPSARDKPASSMSDDEMPVLEIPRKHQPSVPKAEEPLKTVQEKKKFRHRPEPLFIPPPPSYNPNPAASYSGATLYQSQLRSPRVLGDHLLLDPTHELPPYTPPPMLSPVRQGSGLFSNVLISGHGPGAHPQLPLTPLTPTPRVLLCRSNSIDGSNVTVTPGPGEQTVDVEPRINIGLRFQAEIPELQDISALAQDTHKATLVWKPWPELENHDLQQRVENLLNLCCSSALPGGGTNSEFALHSLFEAKGDVMVALEMLLLRKPVRLKCHPLANYHYAGSDKWTSLERKLFNKALATYSKDFIFVQKMVKSKTVAQCVEYYYTWKKIMRLGRKHRTRLAEIIDDCVTSEEEEELEEEEEEDPEEDRKSTKEEESEVPKSPEPPPVPVLAPTEGPPLQALGQPSGSFICEMPNCGAVFSSRQALNGHARIHGGTNQVTKARGAIPSGKQKPGGTQSGYCSVKSSPSHSTTSGETDPTTIFPCKECGKVFFKIKSRNAHMKTHRQQEEQQRQKAQKAAFAAEMAATIERTTGPVGAPGLLPLDQLSLIKPIKDVDILDDDVVQQLGGVMEEAEVVDTDLLLDDQDSVLLQGDAEL
On to B1, for which, in assay [2], the binding entry is “binds”.

B2: endogenous Dnttip1 of HEK293 cells (protein, UniProt Q9H147 1-329)
chain: MGATGDAEQPRGPSGAERGGLELGDAGAAGQLVLTNPWNIMIKHRQVQRRGRRSQMTTSFTDPAISMDLLRAVLQPSINEEIQTVFNKYMKFFQKAALNVRDNVGEEVDAEQLIQEACRSCLEQAKLLFSDGEKVIPRLTHELPGIKRGRQAEEECAHRGSPLPKKRKGRPPGHILSSDRAAAGMVWKPKSCEPIRREGPKWDPARLNESTTFVLGSRANKALGMGGTRGRIYIKHPHLFKYAADPQDKHWLAEQHHMRATGGKMAYLLIEEDIRDLAASDDYRGCLDLKLEELKSFVLPSWMVEKMRKYMETLRTENEHRAVEAPPQT
For B2, in assay [1], the binding result was “binds”.
